Consider two molecules from publication doi:10.1101/2021.09.16.460581.

For the test, the target named is T1, Mrc1-YFP (S. cerevisiae) (UniProt P25588).
T1 sequence: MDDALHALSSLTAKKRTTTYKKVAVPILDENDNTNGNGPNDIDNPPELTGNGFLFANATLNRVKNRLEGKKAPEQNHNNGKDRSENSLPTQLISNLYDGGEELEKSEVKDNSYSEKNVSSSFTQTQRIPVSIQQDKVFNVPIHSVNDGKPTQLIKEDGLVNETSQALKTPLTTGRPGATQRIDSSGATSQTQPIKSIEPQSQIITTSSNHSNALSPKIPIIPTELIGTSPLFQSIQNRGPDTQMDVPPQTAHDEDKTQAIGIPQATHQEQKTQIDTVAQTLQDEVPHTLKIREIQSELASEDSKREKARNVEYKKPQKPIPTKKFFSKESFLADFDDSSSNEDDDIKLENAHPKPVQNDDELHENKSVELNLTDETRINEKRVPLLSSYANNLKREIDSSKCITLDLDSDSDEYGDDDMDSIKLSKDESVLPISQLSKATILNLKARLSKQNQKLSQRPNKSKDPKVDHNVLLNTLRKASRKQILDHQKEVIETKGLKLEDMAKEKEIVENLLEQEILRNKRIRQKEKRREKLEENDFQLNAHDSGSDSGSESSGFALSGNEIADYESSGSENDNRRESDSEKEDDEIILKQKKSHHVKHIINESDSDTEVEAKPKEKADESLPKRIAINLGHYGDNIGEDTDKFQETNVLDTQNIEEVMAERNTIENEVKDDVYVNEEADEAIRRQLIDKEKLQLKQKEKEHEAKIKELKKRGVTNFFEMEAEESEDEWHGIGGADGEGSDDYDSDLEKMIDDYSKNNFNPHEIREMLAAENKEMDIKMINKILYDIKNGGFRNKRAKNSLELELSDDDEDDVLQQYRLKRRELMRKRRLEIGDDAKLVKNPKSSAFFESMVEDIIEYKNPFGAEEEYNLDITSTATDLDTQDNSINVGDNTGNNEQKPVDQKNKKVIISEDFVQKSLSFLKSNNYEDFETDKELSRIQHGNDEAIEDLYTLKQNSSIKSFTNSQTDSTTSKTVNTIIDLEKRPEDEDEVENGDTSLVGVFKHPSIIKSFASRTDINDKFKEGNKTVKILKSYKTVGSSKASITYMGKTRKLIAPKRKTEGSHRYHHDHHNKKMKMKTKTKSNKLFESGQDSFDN
As to the kind of experiment: affinity purification with mass spectrometry.

These are yes or no findings as the source states them, for the method shown. In cells and extracts the contact can be indirect. A yes stands for co-enrichment or nearness to the bait. Other partners may have been found. Sequences can lack the tags named with a protein.

B1: Smc1 (protein, UniProt P32908 1-1225)
chain: MGRLVGLELSNFKSYRGVTKVGFGESNFTSIIGPNGSGKSNMMDAISFVLGVRSNHLRSNILKDLIYRGVLNDENSDDYDNEGAASSNPQSAYVKAFYQKGNKLVELMRIISRNGDTSYKIDGKTVSYKDYSIFLENENILIKAKNFLVFQGDVEQIAAQSPVELSRMFEEVSGSIQYKKEYEELKEKIEKLSKSATESIKNRRRIHGELKTYKEGINKNEEYRKQLDKKNELQKFQALWQLYHLEQQKEELTDKLSALNSEISSLKGKINNEMKSLQRSKSSFVKESAVISKQKSKLDYIFKDKEKLVSDLRLIKVPQQAAGKRISHIEKRIESLQKDLQRQKTYVERFETQLKVVTRSKEAFEEEIKQSARNYDKFKLNENDLKTYNCLHEKYLTEGGSILEEKIAVLNNDKREIQEELERFNKRADISKRRITEELSITGEKLDTQLNDLRVSLNEKNALHTERLHELKKLQSDIESANNQEYDLNFKLRETLVKIDDLSANQRETMKERKLRENIAMLKRFFPGVKGLVHDLCHPKKEKYGLAVSTILGKNFDSVIVENLTVAQECIAFLKKQRAGTASFIPLDTIETELPTLSLPDSQDYILSINAIDYEPEYEKAMQYVCGDSIICNTLNIAKDLKWKKGIRGKLVTIEGALIHKAGLMTGGISGDANNRWDKEEYQSLMSLKDKLLIQIDELSNGQRSNSIRAREVENSVSLLNSDIANLRTQVTQQKRSLDENRLEIKYHNDLIEKEIQPKITELKKKLDDLENTKDNLVKEKEALQNNIFKEFTSKIGFTIKEYENHSGELMRQQSKELQQLQKQILTVENKLQFETDRLSTTQRRYEKAQKDLENAQVEMKSLEEQEYAIEMKIGSIESKLEEHKNHLDELQKKFVTKQSELNSSEDILEDMNSNLQVLKRERDGIKEDIEKFDLERVTALKNCKISNINIPISSETTIDDLPISSTDNEAITISNSIDINYKGLPKKYKENNTDSARKELEQKIHEVEEILNELQPNARALERYDEAEGRFEVINNETEQLKAEEKKILNQFLKIKKKRKELFEKTFDYVSDHLDAIYRELTKNPNSNVELAGGNASLTIEDEDEPFNAGIKYHATPPLKRFKDMEYLSGGEKTVAALALLFAINSYQPSPFFVLDEVDAALDITNVQRIAAYIRRHRNPDLQFIVISLKNTMFEKSDALVGVYRQQQENSSKIITLDLSNYAE
As to B1, the binding result is “binds”.

B2: Mcm4 (protein, UniProt P30665 1-933)
chain: MSQQSSSPTKEDNNSSSPVVPNPDSVPPQLSSPALFYSSSSSQGDIYGRNNSQNLSQGEGNIRAAIGSSPLNFPSSSQRQNSDVFQSQGRQGRIRSSASASGRSRYHSDLRSDRALPTSSSSLGRNGQNRVHMRRNDIHTSDLSSPRRIVDFDTRSGVNTLDTSSSSAPPSEASEPLRIIWGTNVSIQECTTNFRNFLMSFKYKFRKILDEREEFINNTTDEELYYIKQLNEMRELGTSNLNLDARNLLAYKQTEDLYHQLLNYPQEVISIMDQTIKDCMVSLIVDNNLDYDLDEIETKFYKVRPYNVGSCKGMRELNPNDIDKLINLKGLVLRSTPVIPDMKVAFFKCNVCDHTMAVEIDRGVIQEPARCERIDCNEPNSMSLIHNRCSFADKQVIKLQETPDFVPDGQTPHSISLCVYDELVDSCRAGDRIEVTGTFRSIPIRANSRQRVLKSLYKTYVDVVHVKKVSDKRLDVDTSTIEQELMQNKVDHNEVEEVRQITDQDLAKIREVAAREDLYSLLARSIAPSIYELEDVKKGILLQLFGGTNKTFTKGGRYRGDINILLCGDPSTSKSQILQYVHKITPRGVYTSGKGSSAVGLTAYITRDVDTKQLVLESGALVLSDGGVCCIDEFDKMSDSTRSVLHEVMEQQTISIAKAGIITTLNARSSILASANPIGSRYNPNLPVTENIDLPPPLLSRFDLVYLVLDKVDEKNDRELAKHLTNLYLEDKPEHISQDDVLPVEFLTMYISYAKEHIHPIITEAAKTELVRAYVGMRKMGDDSRSDEKRITATTRQLESMIRLAEAHAKMKLKNVVELEDVQEAVRLIRSAIKDYATDPKTGKIDMNLVQTGKSVIQRKLQEDLSREIMNVLKDQASDSMSFNELIKQINEHSQDRVESSDIQEALSRLQQEDKVIVLGEGVRRSVRLNNRV
As to B2, the binding entry is reported as “binds”.
